# Source: PubChem BioAssay AID588497 (NMMLSC, 2011)
# The campaign covered roughly 360,000 compounds. About 780 (0.22%) were called active. This list was built around the results that the source calls inconclusive (neither active nor inactive); the mix of calls is not that of the screen. Rule as the data show it: active = inhibition above about 35% (passing the limit was not always enough); inconclusive = no clear call, values can overlap the other calls.
# Test system: Botulinum neurotoxin type F light chain protease (Clostridium botulinum)
# Assay: BoNT/F light chain protease inhibitors, primary screen, biochemical, flow cytometry, MLPCN library (AID 588497); also: plate controls were buffer without enzyme for full effect and enzyme alone for no effect
# Conditions: Multiplex microsphere protease cleavage assay, at 10 µM, active compounds read high
row,SMILES,inhibition
1,C/C(=N\Nc1ccccc1)c1c(O)n(-c2ccccc2)c(=O)[nH]c1=O,inconclusive: 31.5%
2,O=C(c1ccc(-c2ccccc2)c(F)c1)C1CCCN(C(=O)c2cncs2)C1 (stereo unspecified),inactive: 0.3%
3,CC(C)C(=O)NC(c1cccc([N+](=O)[O-])c1)c1ccc2cccnc2c1O (stereo unspecified),inconclusive: 5.7%
4,COc1cccc(Nc2c([N+](=O)[O-])cncc2[N+](=O)[O-])c1,inconclusive: -55%
5,O=C(O)Cn1cc(C(=O)c2ccccc2F)c2ccccc21,inconclusive: 22.6%
6,O=C1ON=C(c2ccccc2)/C1=C\c1ccco1,inconclusive: -10.9%
7,CCCCNC(=O)c1nc(-c2ccncc2)oc1-c1ccccc1,inactive: -4.3%
8,CCOC(=O)C1(CCOc2ccccc2)CCN(Cc2cc(OC)ccc2OC)CC1,inconclusive: 22%
9,CSCC(=O)Nc1ccc(F)c(Cl)c1,inconclusive: 70.9%
10,Cc1cc(N2C(=O)C(O)=C(C(=O)c3ccc(C)o3)C2c2ccc([N+](=O)[O-])cc2)no1 (stereo unspecified),inactive: 3.3%
11,COc1cccc2c1-c1c(C(=O)O)cccc1C2=O,inconclusive: 7.4%
12,N#C/C(=C\c1c(Cl)cccc1Cl)c1nc2ccccc2o1,active: 49.1%
13,CC(C)Nc1nc(Cl)nc(NC2CCCCC2)n1,inconclusive: -26%
14,CC(C(=O)N1CCc2ccccc2C1)N1C(=O)c2ccccc2C1=O (stereo unspecified),inconclusive: 38.1%
15,COc1cc(C(c2sc3nc(C)nn3c2O)N2CCC3(CC2)OCCO3)cc(OC)c1OC (stereo unspecified),inconclusive: 11%
16,CCOC(=O)N1CCC(NC(=O)c2ccc(Cl)cc2)CC1,inconclusive: -49.7%
17,O=C(CN1C(=O)c2ccccc2S1(=O)=O)Nc1ncc([N+](=O)[O-])s1,inconclusive: -74.6%
18,COC(=O)[C@]1(C)N[C@H](CN(C)C(C)=O)[C@@H]2C(=O)N(Cc3ccccc3)C(=O)[C@@H]21,inactive: -2.4%
19,S=c1[nH]nc(-c2ccn[nH]2)n1-c1ccccc1Cl,inconclusive: 59.8%
20,Cn1c(SCC(=O)c2ccc(F)cc2)nnc1-c1ccccn1,inconclusive: 1.6%
21,Cc1cccc2c(SCC(N)=O)nc(-c3ccccc3)nc12,inconclusive: -23%

row,SMILES,inhibition
1,OC(CNCCc1ccccc1)COc1ccc(OCC(O)CNCCc2ccccc2)cc1 (stereo unspecified),inconclusive: -105%
2,COC(=O)C1=C(N)Oc2cc(C)[nH]c(=O)c2C1c1ccncc1 (stereo unspecified),inconclusive: -38.8%
3,Cc1ccc(S(=O)(=O)Nc2c(C)nn(C)c2C)cc1C,inconclusive: -5.4%
4,Cc1nc2ncccn2c1-c1csc(Nc2ccc(S(N)(=O)=O)cc2)n1,inconclusive: -61.7%
5,Cc1ccc(-c2csc3ncnc(NCCC(=O)O)c23)cc1C,inconclusive: 23.8%
6,C=CCNC(=O)c1cc(-c2cccnc2)nc2ccccc12,inactive: -19.7%
7,O=C(/C=C/c1ccc(F)cc1)NC(=S)N1CCCCC1c1cccnc1 (stereo unspecified),inconclusive: -129%
8,CCC1(c2ccc(F)cc2)NC(=O)N(CC(=O)c2cc(C)n(C3CC3)c2C)C1=O (stereo unspecified),inconclusive: -6.9%
9,COc1cc(SC)ccc1C(=O)NCCNC(=O)c1nonc1N,inactive: -12.6%
10,Cc1ccccc1NC(=S)Nc1ccccn1,active: 36.8%
11,COc1cccc2c1cc1c(=O)n(CC(=O)N3CCCC3)nc(C)n12,inactive: 1.4%
12,O=C(c1ccc(Cl)cc1)N1N=C(c2ccccn2)CC1(O)C(F)(F)F (stereo unspecified),inconclusive: -110%
13,COC(=O)[C@H](CCSC)NS(=O)(=O)c1ccccc1Br,inactive: -1.5%
14,CCn1c(SC)nnc1-c1ccc(S(=O)(=O)N2CCCCC2)cc1,inactive: 7%
15,CCCc1nc(SCc2cccnc2)c2c(=O)n(C)c(=O)n(C)c2n1,inactive: -5.9%
16,Cc1ccc(Cn2ccc(NC(=O)c3cc(-c4ccc(Cl)cc4)on3)n2)cc1,inactive: 1.2%
17,NC(=O)c1ccc(Oc2ccc(Cl)cc2)c([N+](=O)[O-])c1,inconclusive: -23%
18,Cc1nnc(N/N=C/c2ccc(Br)cc2)n1N,inconclusive: -13.3%
19,CCCC(=O)N/C(N)=N/c1nc(C)c2ccccc2n1,inconclusive: -38%
20,COc1cccc(NC(=O)c2cnc(SC)nc2)c1,inconclusive: 10.2%
21,CC1CN(c2ccc(NS(=O)(=O)c3ccccc3)cc2C(=O)O)CC(C)O1 (stereo unspecified),inconclusive: 27.6%

row,SMILES,inhibition
1,O=C(NN=Cc1ccc(N(CCCl)CCCl)cc1)c1cccnc1,inactive: -6.5%
2,Cc1cccc(NS(=O)(=O)c2ccc(C)c(C(=O)NCCCN3CCOCC3)c2)c1,inconclusive: -13.5%
3,CCc1noc(C)c1C(=O)Nc1nc2ccc(OC)cc2s1,inconclusive: -10.9%
4,COc1ccccc1N=Nc1c(C)noc1C,inconclusive: 134%
5,COc1cccc(OC)c1C(=O)Nc1ccc2c(c1)OCCO2,inactive: -5.1%
6,NC(=O)c1ccccc1NS(=O)(=O)c1ccc(F)cc1,inactive: 2.5%
7,COC(=O)Nc1nncs1,inconclusive: -116%
8,CCOC(=O)c1cnc2scnn2c1=O,inactive: 8%
9,COc1ccc(S(=O)(=O)N(C)CC(=O)NCCN2CCOCC2)cc1C,inactive: 10.5%
10,CCCCOc1ccc(OCCSc2nc3ccccc3n2CC(=O)O)cc1,inconclusive: 4%
11,COC(=O)C1CSC2c3ccccc3C(=O)N12 (stereo unspecified),inconclusive: 0.5%
12,CN1CCN(C(=O)c2cc([N+](=O)[O-])ccc2Cl)CC1,inconclusive: -8.6%
13,COc1cccc(CNCc2ccccc2OC)c1,inconclusive: -6.1%
14,N#Cc1c(-c2ccccc2)c(-c2ccccc2)nn(CC(=O)NNC(=O)Nc2ccc(Cl)cc2)c1=O,inconclusive: -25.1%
15,COc1ccc(CN2CCOCCOCCOCCOCCOCC2)cc1,inconclusive: 12.3%
16,NNC(=O)C(=O)Nc1ccc(Cl)c(Cl)c1,inconclusive: -48.9%
17,CCN(CC)CCn1c(NC(=O)c2ccc(C)cc2)nc2ccccc21,inconclusive: -26.5%
18,O=C(Nc1cccc(Cl)c1N1CCOCC1)c1cccs1,inactive: 2.1%
19,COC(=O)Oc1ccc(/C=N/NS(=O)(=O)c2ccccc2)cc1OC,inconclusive: -45.3%

# By substructure, those above with an NH in an aromatic ring (three)
row,SMILES,inhibition
1,C/C(=N\Nc1ccccc1)c1c(O)n(-c2ccccc2)c(=O)[nH]c1=O,inconclusive: 31.5%
19,S=c1[nH]nc(-c2ccn[nH]2)n1-c1ccccc1Cl,inconclusive: 59.8%
2,COC(=O)C1=C(N)Oc2cc(C)[nH]c(=O)c2C1c1ccncc1 (stereo unspecified),inconclusive: -38.8%
